Assay results: publication PMC10685607
Results are given in words; binding and its absence hold for the method and conditions named. In cells and extracts the contact can be indirect. Here binding means that the protein was enriched with, or labelled near, the bait; the list need not be complete.

Chains of the proteins cited; added tags and fusions are not shown.
UniProt Q92963: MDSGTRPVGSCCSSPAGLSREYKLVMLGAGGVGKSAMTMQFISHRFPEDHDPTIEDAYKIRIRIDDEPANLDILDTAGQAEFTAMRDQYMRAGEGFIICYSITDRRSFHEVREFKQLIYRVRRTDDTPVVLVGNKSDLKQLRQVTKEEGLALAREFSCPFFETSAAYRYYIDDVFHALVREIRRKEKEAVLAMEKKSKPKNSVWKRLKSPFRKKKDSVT
UniProt Q9UQE7: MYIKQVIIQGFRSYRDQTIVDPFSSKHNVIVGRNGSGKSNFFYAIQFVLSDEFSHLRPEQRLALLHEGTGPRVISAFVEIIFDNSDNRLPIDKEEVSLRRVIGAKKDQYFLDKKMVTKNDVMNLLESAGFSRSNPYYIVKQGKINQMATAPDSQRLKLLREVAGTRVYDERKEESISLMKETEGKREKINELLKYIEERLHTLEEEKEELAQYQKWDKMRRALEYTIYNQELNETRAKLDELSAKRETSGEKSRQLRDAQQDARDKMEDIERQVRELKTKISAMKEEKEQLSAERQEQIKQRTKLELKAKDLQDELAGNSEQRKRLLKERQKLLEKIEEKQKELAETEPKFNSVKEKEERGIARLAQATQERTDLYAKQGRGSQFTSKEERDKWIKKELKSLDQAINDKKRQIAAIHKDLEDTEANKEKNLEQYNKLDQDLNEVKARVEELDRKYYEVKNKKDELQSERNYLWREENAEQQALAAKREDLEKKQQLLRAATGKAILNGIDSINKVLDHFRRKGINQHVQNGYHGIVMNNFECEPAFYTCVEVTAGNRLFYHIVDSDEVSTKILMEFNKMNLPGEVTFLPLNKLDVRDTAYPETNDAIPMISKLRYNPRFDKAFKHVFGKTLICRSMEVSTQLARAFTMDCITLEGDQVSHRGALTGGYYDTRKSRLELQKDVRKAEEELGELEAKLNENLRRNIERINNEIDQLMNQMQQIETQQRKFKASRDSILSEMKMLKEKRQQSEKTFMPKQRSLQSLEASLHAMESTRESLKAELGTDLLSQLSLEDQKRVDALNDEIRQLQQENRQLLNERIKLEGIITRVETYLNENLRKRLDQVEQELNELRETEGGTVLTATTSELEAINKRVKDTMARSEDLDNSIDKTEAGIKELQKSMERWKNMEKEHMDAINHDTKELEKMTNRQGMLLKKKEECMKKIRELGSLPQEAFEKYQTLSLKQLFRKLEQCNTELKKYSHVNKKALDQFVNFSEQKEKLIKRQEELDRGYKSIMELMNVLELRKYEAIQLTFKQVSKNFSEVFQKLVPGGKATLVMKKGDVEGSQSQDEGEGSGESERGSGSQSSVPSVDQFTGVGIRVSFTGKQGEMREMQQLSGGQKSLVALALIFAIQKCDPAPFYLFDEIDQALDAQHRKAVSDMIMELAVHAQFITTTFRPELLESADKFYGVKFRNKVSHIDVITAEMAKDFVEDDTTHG

Molecular target: Myc-tagged RIT1 (Ras-like-without-CAAX-1), expressed in HCC cells (human) (UniProt Q92963)
Experiment: affinity purification with mass spectrometry; anti-Myc immunoprecipitate against control IgG from HCC-LY10, Huh7 and Hep3B cells transfected with Myc-tagged RIT1 plasmid; hits: abundance three times higher than in the IgG group, intersected between the cell lines

Row | binding | Molecule
1 | binds | structural maintenance of chromosome 3 (SMC3), endogenous (from UniProt Q9UQE7 1-1217)
2 | binds | PDS5 cohesin associated factor B (PDS5B), endogenous (protein, UniProt Q9NTI5 1-1447) MAHSKTRTNDGKITYPPGVKEISDKISKEEMVRRLKMVVKTFMDMDQDSEEEKELYLNLALHLASDFFLKHPDKDVRLLVACCLADIFRIYAPEAPYTSPDKLKDIFMFITRQLKGLEDTKSPQFNRYFYLLENIAWVKSYNICFELEDSNEIFTQLYRTLFSVINNGHNQKVHMHMVDLMSSIICEGDTVSQELLDTVLVNLVPAHKNLNKQAYDLAKALLKRTAQAIEPYITNFFNQVLMLGKTSISDLSEHVFDLILELYNIDSHLLLSVLPQLEFKLKSNDNEERLQVVKLLAKMFGAKDSELASQNKPLWQCYLGRFNDIHVPIRLECVKFASHCLMNHPDLAKDLTEYLKVRSHDPEEAIRHDVIVSIVTAAKKDILLVNDHLLNFVRERTLDKRWRVRKEAMMGLAQIYKKYALQSAAGKDAAKQIAWIKDKLLHIYYQNSIDDRLLVERIFAQYMVPHNLETTERMKCLYYLYATLDLNAVKALNEMWKCQNLLRHQVKDLLDLIKQPKTDASVKAIFSKVMVITRNLPDPGKAQDFMKKFTQVLEDDEKIRKQLEVLVSPTCSCKQAEGCVREITKKLGNPKQPTNPFLEMIKFLLERIAPVHIDTESISALIKQVNKSIDGTADDEDEGVPTDQAIRAGLELLKVLSFTHPISFHSAETFESLLACLKMDDEKVAEAALQIFKNTGSKIEEDFPHIRSALLPVLHHKSKKGPPRQAKYAIHCIHAIFSSKETQFAQIFEPLHKSLDPSNLEHLITPLVTIGHIALLAPDQFAAPLKSLVATFIVKDLLMNDRLPGKKTTKLWVPDEEVSPETMVKIQAIKMMVRWLLGMKNNHSKSGTSTLRLLTTILHSDGDLTEQGKISKPDMSRLRLAAGSAIVKLAQEPCYHEIITLEQYQLCALAINDECYQVRQVFAQKLHKGLSRLRLPLEYMAICALCAKDPVKERRAHARQCLVKNINVRREYLKQHAAVSEKLLSLLPEYVVPYTIHLLAHDPDYVKVQDIEQLKDVKECLWFVLEILMAKNENNSHAFIRKMVENIKQTKDAQGPDDAKMNEKLYTVCDVAMNIIMSKSTTYSLESPKDPVLPARFFTQPDKNFSNTKNYLPPEMKSFFTPGKPKTTNVLGAVNKPLSSAGKQSQTKSSRMETVSNASSSSNPSSPGRIKGRLDSSEMDHSENEDYTMSSPLPGKKSDKRDDSDLVRSELEKPRGRKKTPVTEQEEKLGMDDLTKLVQEQKPKGSQRSRKRGHTASESDEQQWPEEKRLKEDILENEDEQNSPPKKGKRGRPPKPLGGGTPKEEPTMKTSKKGSKKKSGPPAPEEEEEEERQSGNTEQKSKSKQHRVSRRAQQRAESPESSAIESTQSTPQKGRGRPSKTPSPSQPKKNVRVGRSKQAATKENDSSEEVDVFQGSSPVDDIPQEETEEEEVSTVNVRRRSAKRERR
3 | binds | PDS5 cohesin associated factor A (PDS5A), endogenous (protein, UniProt Q29RF7 1-1337) MDFTAQPKPATALCGVVSADGKIAYPPGVKEITDKITTDEMIKRLKMVVKTFMDMDQDSEDEKQQYLPLALHLASEFFLRNPNKDVRLLVACCLADIFRIYAPEAPYTSHDKLKDIFLFITRQLKGLEDTKSPQFNRYFYLLENLAWVKSYNICFELEDCNEIFIQLFRTLFSVINNSHNKKVQMHMLDLMSSIIMEGDGVTQELLDSILINLIPAHKNLNKQSFDLAKVLLKRTVQTIEACIANFFNQVLVLGRSSVSDLSEHVFDLIQELFAIDPHLLLSVMPQLEFKLKSNDGEERLAVVRLLAKLFGSKDSDLATQNRPLWQCFLGRFNDIHVPVRLESVKFASHCLMNHPDLAKDLTEYLKVRSHDPEEAIRHDVIVTIITAAKRDLALVNDQLLGFVRERTLDKRWRVRKEAMMGLAQLYKKYCLHGEAGKEAAEKVSWIKDKLLHIYYQNSIDDKLLVEKIFAQYLVPHNLETEERMKCLYYLYASLDPNAVKALNEMWKCQNMLRSHVRELLDLHKQPTSEANCSAMFGKLMTIAKNLPDPGKAQDFVKKFNQVLGDDEKLRSQLELLISPTCSCKQADICVREIARKLANPKQPTNPFLEMVKFLLERIAPVHIDSEAISALVKLMNKSIEGTADDEEEGVSPDTAIRSGLELLKVLSFTHPTSFHSAETYESLLQCLRMEDDKVAEAAIQIFRNTGHKIETDLPQIRSTLIPILHQKAKRGTPHQAKQAVHCIHAIFTNKEVQLAQIFEPLSRSLNADVPEQLITPLVSLGHISMLAPDQFASPMKSVVANFIVKDLLMNDRSTGEKNGKLWSPDEEVSPEVLAKVQAIKLLVRWLLGMKNNQSKSANSTLRLLSAMLVSEGDLTEQKRISKSDMSRLRLAAGSAIMKLAQEPCYHEIITPEQFQLCALVINDECYQVRQIFAQKLHKALVKLLLPLEYMAIFALCAKDPVKERRAHARQCLLKNISIRREYIKQNPMATEKLLSLLPEYVVPYMIHLLAHDPDFTRSQDVDQLRDIKECLWFMLEVLMTKNENNSHAFMKKMAENIKLTRDAQSPDESKTNEKLYTVCDVALCVINSKSALCNADSPKDPVLPMKFFTQPEKDFCNDKSYISEETRVLLLTGKPKPAGVLGAVNKPLSATGRKPYVRSTGTETGSNINVNSELNPSTGNRSREQSSEAAETGVSENEENPVRIISVTPVKNIDPVKNKEINSDQATQGNISSDRGKKRTVTAAGAENIQQKTDEKVDESGPPAPSKPRRGRRPKSESQGNATKNDDLNKPINKGRKRAAVGQESPGGLEAGNAKAPKLQDLAKKAAPAERQIDLQR
